Test results reported in article doi:10.1101/2024.01.29.24301801.
Like-named read-outs stand apart in the source and are kept apart here. No constants are given. Whether binding was seen depends on the method and setting. In cells and extracts the contact can be indirect. These calls come from enrichment with a bait or labelling near it, and not all partners need be listed.

The chains behind the UniProt entries cited, without tags or fusion partners. Where a name states a change or a piece, a line headed by the entry shows the natural chain unless it says otherwise.
UniProt O15379: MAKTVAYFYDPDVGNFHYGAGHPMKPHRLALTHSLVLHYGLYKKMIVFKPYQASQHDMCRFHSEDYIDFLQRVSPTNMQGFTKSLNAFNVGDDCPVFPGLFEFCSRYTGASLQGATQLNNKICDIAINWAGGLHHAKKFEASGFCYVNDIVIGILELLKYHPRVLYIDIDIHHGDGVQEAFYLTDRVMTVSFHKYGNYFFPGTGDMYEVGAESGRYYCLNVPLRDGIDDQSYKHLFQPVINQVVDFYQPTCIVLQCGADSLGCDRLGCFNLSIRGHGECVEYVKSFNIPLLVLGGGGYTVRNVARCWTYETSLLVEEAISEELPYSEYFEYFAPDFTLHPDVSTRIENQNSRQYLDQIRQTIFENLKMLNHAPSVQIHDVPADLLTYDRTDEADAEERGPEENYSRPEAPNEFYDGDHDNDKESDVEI
UniProt Q8TAA3: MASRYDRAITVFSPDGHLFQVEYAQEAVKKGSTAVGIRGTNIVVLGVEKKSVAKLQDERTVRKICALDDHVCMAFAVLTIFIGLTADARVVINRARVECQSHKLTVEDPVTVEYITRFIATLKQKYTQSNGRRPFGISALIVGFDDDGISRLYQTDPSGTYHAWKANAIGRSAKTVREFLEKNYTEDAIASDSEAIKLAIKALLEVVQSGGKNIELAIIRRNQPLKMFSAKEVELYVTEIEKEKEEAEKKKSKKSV
UniProt P62191: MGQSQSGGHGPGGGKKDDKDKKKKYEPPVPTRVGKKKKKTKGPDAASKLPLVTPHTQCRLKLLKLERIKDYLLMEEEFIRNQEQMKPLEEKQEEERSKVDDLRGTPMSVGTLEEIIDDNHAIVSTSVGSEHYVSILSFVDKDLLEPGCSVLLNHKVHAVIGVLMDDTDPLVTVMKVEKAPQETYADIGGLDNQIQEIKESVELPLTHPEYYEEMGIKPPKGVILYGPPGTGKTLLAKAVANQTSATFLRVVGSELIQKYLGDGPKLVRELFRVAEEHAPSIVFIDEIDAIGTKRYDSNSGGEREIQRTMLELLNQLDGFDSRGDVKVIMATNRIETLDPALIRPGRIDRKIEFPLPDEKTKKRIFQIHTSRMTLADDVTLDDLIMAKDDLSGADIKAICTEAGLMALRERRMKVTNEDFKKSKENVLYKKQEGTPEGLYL
UniProt P55884: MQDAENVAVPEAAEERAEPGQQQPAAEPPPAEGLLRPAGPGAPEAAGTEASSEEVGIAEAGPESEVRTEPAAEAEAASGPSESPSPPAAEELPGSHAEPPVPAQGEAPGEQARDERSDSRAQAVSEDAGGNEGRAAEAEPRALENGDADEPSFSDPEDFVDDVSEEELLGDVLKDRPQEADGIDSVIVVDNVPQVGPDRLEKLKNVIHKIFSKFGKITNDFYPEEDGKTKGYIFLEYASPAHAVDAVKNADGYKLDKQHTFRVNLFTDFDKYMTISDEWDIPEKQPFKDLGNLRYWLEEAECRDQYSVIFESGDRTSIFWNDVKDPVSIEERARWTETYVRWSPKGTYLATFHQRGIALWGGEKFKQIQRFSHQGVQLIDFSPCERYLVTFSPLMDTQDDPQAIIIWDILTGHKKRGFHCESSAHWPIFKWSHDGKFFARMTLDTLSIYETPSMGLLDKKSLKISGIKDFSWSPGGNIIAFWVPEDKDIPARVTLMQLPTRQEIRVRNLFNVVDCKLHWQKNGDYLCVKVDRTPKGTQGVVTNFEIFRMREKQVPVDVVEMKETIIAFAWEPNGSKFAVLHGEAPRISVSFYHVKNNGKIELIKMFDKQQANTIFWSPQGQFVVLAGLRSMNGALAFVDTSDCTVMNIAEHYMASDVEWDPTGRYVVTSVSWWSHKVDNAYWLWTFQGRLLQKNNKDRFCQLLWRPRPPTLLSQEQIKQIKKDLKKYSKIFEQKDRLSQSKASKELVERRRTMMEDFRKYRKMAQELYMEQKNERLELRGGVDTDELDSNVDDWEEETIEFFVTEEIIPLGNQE
UniProt Q13547: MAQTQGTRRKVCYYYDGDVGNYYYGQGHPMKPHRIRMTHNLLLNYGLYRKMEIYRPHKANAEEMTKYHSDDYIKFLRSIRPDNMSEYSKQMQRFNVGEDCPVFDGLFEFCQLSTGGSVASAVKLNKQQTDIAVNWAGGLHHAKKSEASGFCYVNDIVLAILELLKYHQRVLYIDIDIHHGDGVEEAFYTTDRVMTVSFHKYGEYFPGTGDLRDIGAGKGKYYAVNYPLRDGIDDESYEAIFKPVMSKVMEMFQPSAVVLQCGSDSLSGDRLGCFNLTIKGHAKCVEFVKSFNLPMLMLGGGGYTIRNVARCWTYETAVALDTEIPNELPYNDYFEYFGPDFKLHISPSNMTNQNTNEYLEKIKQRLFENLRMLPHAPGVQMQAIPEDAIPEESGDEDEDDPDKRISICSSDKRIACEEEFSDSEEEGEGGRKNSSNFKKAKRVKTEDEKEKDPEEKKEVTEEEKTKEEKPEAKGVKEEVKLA
UniProt O14818: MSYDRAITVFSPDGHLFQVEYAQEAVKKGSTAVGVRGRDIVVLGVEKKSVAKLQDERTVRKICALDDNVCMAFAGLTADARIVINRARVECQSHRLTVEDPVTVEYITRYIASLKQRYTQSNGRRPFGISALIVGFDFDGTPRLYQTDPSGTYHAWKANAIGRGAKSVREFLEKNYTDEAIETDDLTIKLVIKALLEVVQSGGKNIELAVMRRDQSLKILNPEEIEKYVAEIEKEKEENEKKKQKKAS
UniProt Q9UKL0: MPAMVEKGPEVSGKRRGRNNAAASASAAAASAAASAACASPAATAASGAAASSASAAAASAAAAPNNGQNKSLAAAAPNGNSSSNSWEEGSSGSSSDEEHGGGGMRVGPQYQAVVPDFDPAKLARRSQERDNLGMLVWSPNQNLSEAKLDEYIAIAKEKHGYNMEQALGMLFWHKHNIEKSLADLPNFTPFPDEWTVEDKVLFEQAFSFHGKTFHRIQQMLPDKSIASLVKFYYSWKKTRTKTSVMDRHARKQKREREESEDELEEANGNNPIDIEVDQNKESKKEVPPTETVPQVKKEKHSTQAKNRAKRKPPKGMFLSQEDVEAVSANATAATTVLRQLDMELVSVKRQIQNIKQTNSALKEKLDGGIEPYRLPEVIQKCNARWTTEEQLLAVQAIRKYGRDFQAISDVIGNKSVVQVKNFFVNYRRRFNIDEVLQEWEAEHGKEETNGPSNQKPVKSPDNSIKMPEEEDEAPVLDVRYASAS

What was measured:
Test in all cases: affinity purification with mass spectrometry
[1] = biological target: FLAG-tagged HDAC3 A110T variant (HEK293T) (human) (UniProt O15379)
[2] = biological target: FLAG-tagged HDAC3 G267S variant (HEK293T) (human) (UniProt O15379)
[3] = biological target: FLAG-tagged HDAC3 L266S variant (HEK293T) (human) (UniProt O15379)
[4] = biological target: FLAG-tagged HDAC3 R359C variant (HEK293T) (human) (UniProt O15379)
[5] = biological target: FLAG-tagged wild-type HDAC3 (HEK293T) (human) (UniProt O15379)
[6] = biological target: FLAG-tagged HDAC3 A110T variant (HEK293T) (human) (UniProt O15379); remark: listed apart in the source
[7] = biological target: FLAG-tagged HDAC3 G267S variant (HEK293T) (human) (UniProt O15379); remark: listed apart in the source
[8] = biological target: FLAG-tagged HDAC3 L266S variant (HEK293T) (human) (UniProt O15379); remark: listed apart in the source
[9] = biological target: FLAG-tagged HDAC3 R359C variant (HEK293T) (human) (UniProt O15379); remark: listed apart in the source
[10] = biological target: FLAG-tagged wild-type HDAC3 (HEK293T) (human) (UniProt O15379); remark: listed apart in the source

Measured: binding

PSMA8 (from UniProt Q8TAA3 1-256)
binds: [1] | [2] | [3] | [4]

PSMC1 (from UniProt P62191 1-440)
binds: [1] | [2] | [3] | [4]

EIF3B (from UniProt P55884 1-814)
binds: [1] | [2] | [3] | [4] | [5]

HDAC1 (from UniProt Q13547 1-482)
binds: [1] | [2] | [3] | [4]

PSMA7 (from UniProt O14818 1-248)
binds: [1] | [2] | [3] | [4]

RCOR3 (from UniProt Q9P2K3 1-495)
binds: [1] | [2] | [3] | [4] | [5]

REST corepressor 1 (RCOR1) (from UniProt Q9UKL0 1-485)
binds: [1] | [2] | [3] | [4] | [5]

B1: AMER1 (protein, UniProt Q5JTC6 1-1135)
chain: METQKDEAAQAKGAAASGSTREQTAEKGAKNKAAEATEGPTSEPSSSGPGRLKKTAMKLFGGKKGICTLPSFFGGGRSKGSGKGSSKKGLSKSKTHDGLSEAAHGPEDVVSEGTGFSLPLPELPCQFPSSQSAHGALETGSRCKTSVAGATEKAVAEKFPSMPKPKKGLKGFFSSIRRHRKSKVTGAEQSEPGAKGPERVRARPHEHVSSAPQVPCFEETFQAPRKENANPQDAPGPKVSPTPEPSPPATEKMACKDPEKPMEACASAHVQPKPAPEASSLEEPHSPETGEKVVAGEVNPPNGPVGDPLSLLFGDVTSLKSFDSLTGCGDIIAEQDMDSMTDSMASGGQRANRDGTKRSSCLVTYQGGGEEMALPDDDDEEEEEEEEVELEEEEEEVKEEEEDDDLEYLWETAQMYPRPNMNLGYHPTTSPGHHGYMLLDPVRSYPGLAPGELLTPQSDQQESAPNSDEGYYDSTTPGFEDDSGEALGLVRRDCLPRDSYSGDALYEFYEPDDSLENSPPGDDCLYDLHGRSSEMFDPFLNFEPFLSSRPPGAMETEEERLVTIQKQLLYWELRREQLEAQEARAREAHAREAHAREAYTREAYGREAYAREAHTWEAHGREARTREAQAREVRCRETQVRETQARQEKPVLEYQMRPLGPSVMGLAAGVSGTSQISHRGITSAFPTTASSEPDWRDFRPLEKRYEGTCSKKDQSTCLMQLFQSDAMFEPDMQEANFGGSPRRAYPTYSPPEDPEEEEVEKEGNATVSFSQALVEFTSNGNLFSSMSCSSDSDSSFTQNLPELPPMVTFDIADVERDGEGKCEENPEFHNDEDLAASLEAFELGYYHKHAFNNYHSRFYQGLPWGVSSLPRYLGLPGLHPRPPPAAMALNRRSRSLDTAETLEMELSNSHLVQGYLESDELQAQQEDSDEEDEEEEEGEWSRDSPLSLYTEPPGAYDWPAWAPCPLPVGPGPAWISPNQLDRPSSQSPYRQATCCIPPMTMSISLSVPESRAPGESGPQLARPSHLHLPMGPCYNLQPQASQSMRARPRDVLLPVDEPSCSSSSGGFSPSPLPQAKPVGITHGIPQLPRVRPEHPQPQPTHYGPSSLDLSKERAEQGASLATSYSSTAMNGNLAK
binds: [6] | [7] | [8] | [9] | [10]

B2: GANAB (protein, UniProt Q14697 29-944)
chain: ITLAVDRSNFKTCEESSFCKRQRSIRPGLSPYRALLDSLQLGPDSLTVHLIHEVTKVLLVLELQGLQKNMTRFRIDELEPRRPRYRVPDVLVADPPIARLSVSGRDENSVELTMAEGPYKIILTARPFRLDLLEDRSLLLSVNARGLLEFEHQRAPRVSQGSKDPAEGDGAQPEETPRDGDKPEETQGKAEKDEPGAWEETFKTHSDSKPYGPMSVGLDFSLPGMEHVYGIPEHADNLRLKVTEGGEPYRLYNLDVFQYELYNPMALYGSVPVLLAHNPHRDLGIFWLNAAETWVDISSNTAGKTLFGKMMDYLQGSGETPQTDVRWMSETGIIDVFLLLGPSISDVFRQYASLTGTQALPPLFSLGYHQSRWNYRDEADVLEVDQGFDDHNLPCDVIWLDIEHADGKRYFTWDPSRFPQPRTMLERLASKRRKLVAIVDPHIKVDSGYRVHEELRNLGLYVKTRDGSDYEGWCWPGSAGYPDFTNPTMRAWWANMFSYDNYEGSAPNLFVWNDMNEPSVFNGPEVTMLKDAQHYGGWEHRDVHNIYGLYVHMATADGLRQRSGGMERPFVLARAFFAGSQRFGAVWTGDNTAEWDHLKISIPMCLSLGLVGLSFCGADVGGFFKNPEPELLVRWYQMGAYQPFFRAHAHLDTGRREPWLLPSQHNDIIRDALGQRYSLLPFWYTLLYQAHREGIPVMRPLWVQYPQDVTTFNIDDQYLLGDALLVHPVSDSGAHGVQVYLPGQGEVWYDIQSYQKHHGPQTLYLPVTLSSIPVFQRGGTIVPRWMRVRRSSECMKDDPITLFVALSPQGTAQGELFLDDGHTFNYQTRQEFLLRRFSFSGNTLVSSSADPEGHFETPIWIERVVIIGAGKPAAVVLQTKGSPESRLSFQHDPETSVLVLRKPGINVASDWSIHLR
binds: [6] | [7] | [8] | [9] | [10]

B3: AKAP8L (protein, UniProt Q9ULX6 1-646)
chain: MSYTGFVQGSETTLQSTYSDTSAQPTCDYGYGTWNSGTNRGYEGYGYGYGYGQDNTTNYGYGMATSHSWEMPSSDTNANTSASGSASADSVLSRINQRLDMVPHLETDMMQGGVYGSGGERYDSYESCDSRAVLSERDLYRSGYDYSELDPEMEMAYEGQYDAYRDQFRMRGNDTFGPRAQGWARDARSGRPMASGYGRMWEDPMGARGQCMSGASRLPSLFSQNIIPEYGMFQGMRGGGAFPGGSRFGFGFGNGMKQMRRTWKTWTTADFRTKKKKRKQGGSPDEPDSKATRTDCSDNSDSDNDEGTEGEATEGLEGTEAVEKGSRVDGEDEEGKEDGREEGKEDPEKGALTTQDENGQTKRKLQAGKKSQDKQKKRQRDRMVERIQFVCSLCKYRTFYEDEMASHLDSKFHKEHFKYVGTKLPKQTADFLQEYVTNKTKKTEELRKTVEDLDGLIQQIYRDQDLTQEIAMEHFVKKVEAAHCAACDLFIPMQFGIIQKHLKTMDHNRNRRLMMEQSKKSSLMVARSILNNKLISKKLERYLKGENPFTDSPEEEKEQEEAEGGALDEGAQGEAAGISEGAEGVPAQPPVPPEPAPGAVSPPPPPPPEEEEEGAVPLLGGALQRQIRGIPGLDVEDDEEGGGGAP
binds: [6] | [7] | [8] | [9] | [10]

B4: GSE1 (protein, UniProt Q14687 1-1217)
chain: MKGMSHEPKSPSLGMLSTATRTTATVNPLTPSPLNGALVPSGSPATSSALSAQAAPSSSFAAALRKLAKQAEEPRGSSLSSESSPVSSPATNHSSPASTPKRVPMGPIIVPPGGHSVPSTPPVVTIAPTKTVNGVWRSESRQDAGSRSSSGGRERLIVEPPLPQEKAGGPAIPSHLLSTPYPFGLSPSSVVQDSRFPPLNLQRPVHHVVPPSTVTEDYLRSFRPYHTTDDLRMSSLPPLGLDPATAAAYYHPSYLAPHPFPHPAFRMDDSYCLSALRSPFYPIPTPGSLPPLHPSAMHLHLSGVRYPPELSHSSLAALHSERMSGLSAERLQMDEELRREREREREREREREADREREKEREREREKEREQEKEREREKERERELERQREQRAREKELLAAKALEPSFLPVAELHGLRGHATEERGKPSEQLTPTRAEKLKDAGLQAPKPVQHPLHPVPTPHHTVPSLISNHGIFSLPSSSAATALLIQRTNEEEKWLARQRRLRQEKEDRQSQVSEFRQQVLEQHLDMGRPPVPAEAEHRPESTTRPGPNRHEPGGRDPPQHFGGPPPLISPKPQLHAAPTALWNPVSLMDNTLETRRAESHSLHSHPAAFEPSRQAAVPLVKVERVFCPEKAEEGPRKREPAPLDKYQPPPPPPREGGSLEHQPFLPGPGPFLAELEKSTQTILGQQRASLPQAATFGELSGPLKPGSPYRPPVPRAPDPAYIYDEFLQQRRRLVSKLDLEERRRREAQEKGYYYDLDDSYDESDEEEVRAHLRCVAEQPPLKLDTSSEKLEFLQLFGLTTQQQKEELVAQKRRKRRRMLRERSPSPPTIQSKRQTPSPRLALSTRYSPDEMNNSPNFEEKKKFLTIFNLTHISAEKRKDKERLVEMLRAMKQKALSAAVADSLTNSPRDSPAVSLSEPATQQASLDVEKPVGVAASLSDIPKAAEPGKLEQVRPQELSRVQELAPASGEKARLSEAPGGKKSLSMLHYIRGAAPKDIPVPLSHSTNGKSKPWEPFVAEEFAHQFHESVLQSTQKALQKHKGSVAVLSAEQNHKVDTSVHYNIPELQSSSRAPPPQHNGQQEPPTARKGPPTQELDRDSEEEEEEDDEDGEDEEEVPKRKWQGIEAVFEAYQEHIEEQNLERQVLQTQCRRLEARHYSLSLTAEQLSHSVAELRSQKQKMVSERERLQAELDHLRKCLALPAMHWPRGYLKGYPR
binds: [6] | [7] | [8] | [9] | [10]
